In the experiment the target is T1, Centrosomal Protein 190 (Cp190), wild type (Drosophila melanogaster (endogenous in pupae)) (UniProt Q24478).
T1 sequence: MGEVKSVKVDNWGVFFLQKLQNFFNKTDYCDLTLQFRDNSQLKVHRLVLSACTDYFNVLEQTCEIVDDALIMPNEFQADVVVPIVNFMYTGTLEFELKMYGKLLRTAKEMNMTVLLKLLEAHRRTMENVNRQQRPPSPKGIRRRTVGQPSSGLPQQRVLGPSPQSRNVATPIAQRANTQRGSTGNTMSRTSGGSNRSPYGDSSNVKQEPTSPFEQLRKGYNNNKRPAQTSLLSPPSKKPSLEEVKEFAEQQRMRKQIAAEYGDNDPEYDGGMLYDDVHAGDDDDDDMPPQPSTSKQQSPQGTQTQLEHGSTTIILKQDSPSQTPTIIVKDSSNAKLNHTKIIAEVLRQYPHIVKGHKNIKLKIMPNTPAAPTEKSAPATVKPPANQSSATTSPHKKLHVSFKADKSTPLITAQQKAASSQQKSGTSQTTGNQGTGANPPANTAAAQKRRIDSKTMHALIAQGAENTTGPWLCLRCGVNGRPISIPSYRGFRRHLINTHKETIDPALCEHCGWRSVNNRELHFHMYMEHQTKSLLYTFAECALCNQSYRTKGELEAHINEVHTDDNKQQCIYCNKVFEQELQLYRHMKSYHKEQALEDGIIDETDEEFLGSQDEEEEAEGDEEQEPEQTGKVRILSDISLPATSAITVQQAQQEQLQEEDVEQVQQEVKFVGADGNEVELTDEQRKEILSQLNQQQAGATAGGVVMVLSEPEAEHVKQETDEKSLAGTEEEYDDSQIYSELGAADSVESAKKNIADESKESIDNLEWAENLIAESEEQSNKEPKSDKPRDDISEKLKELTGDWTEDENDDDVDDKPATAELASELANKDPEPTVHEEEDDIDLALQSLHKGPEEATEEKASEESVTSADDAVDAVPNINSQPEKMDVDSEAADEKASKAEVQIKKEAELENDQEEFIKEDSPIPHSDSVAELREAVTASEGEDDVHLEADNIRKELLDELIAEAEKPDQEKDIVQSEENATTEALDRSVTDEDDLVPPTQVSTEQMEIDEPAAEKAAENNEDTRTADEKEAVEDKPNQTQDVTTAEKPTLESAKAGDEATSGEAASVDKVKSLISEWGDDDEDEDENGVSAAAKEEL
Nature of the experiment: co-IP; extracts of pupae; anti-Myc from y2 ct6; P[Ubi63e::myc-CP190dBTB]/+; CP190^3/TM6B pupae, anti-Cp190 from y2 ct6 pupae; immunoblots with anti-Cp190 and anti-Mod(mdg4)67.2; mock controls anti-Myc or pre-immune serum from y2 ct6 pupae. In general terms: In western blotting, separated proteins are transferred to a membrane and probed.

Results are given in words; binding and its absence hold for the method and conditions named. In cells and extracts the contact can be indirect. A result given as binding can be weak or reduced; the word gives no strength.

With Modifier of mdg 4 67.2 [Mod(mdg 4)67.2], the binding entry is given as “binds”.

The record behind these values is publication PMC3022720.
